In PMC10250205:
No constants are given. Whether binding was seen depends on the method and setting. In cells and extracts the contact can be indirect. Binding calls can cover weak binding; strength is not graded here. Tags and fused reporters may be left off the sequences shown.

Target: T1, FLAG-mGCNA (mouse Germ Cell Nuclear Acidic protein, FLAG-tagged) (mouse)
T1 sequence: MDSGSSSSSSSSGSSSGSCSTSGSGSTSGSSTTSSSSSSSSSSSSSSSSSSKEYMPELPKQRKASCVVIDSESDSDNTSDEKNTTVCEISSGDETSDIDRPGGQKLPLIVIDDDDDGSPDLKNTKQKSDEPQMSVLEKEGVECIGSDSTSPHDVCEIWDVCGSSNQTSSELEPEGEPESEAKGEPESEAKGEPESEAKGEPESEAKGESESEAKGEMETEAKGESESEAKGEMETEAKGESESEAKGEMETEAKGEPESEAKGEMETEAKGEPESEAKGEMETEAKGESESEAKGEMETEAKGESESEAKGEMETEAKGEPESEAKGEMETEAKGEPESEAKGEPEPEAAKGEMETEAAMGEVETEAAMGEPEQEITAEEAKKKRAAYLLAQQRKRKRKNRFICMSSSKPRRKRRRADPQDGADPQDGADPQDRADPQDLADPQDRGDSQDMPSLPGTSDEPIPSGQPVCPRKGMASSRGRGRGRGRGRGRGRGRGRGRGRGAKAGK
Assay: co-IP; anti-FLAG magnetic beads on the soluble (chromatin-free) fraction of 3T3 cells transiently transfected with FLAG-mGCNA; Benzonase and DNAse I added; binding buffer 20 mM Tris-HCl pH 7.4, 150 mM NaCl; overnight at 4°C; western blot

binding: binds
Substance: Topoisomerase 2 (TOP2) (mouse (endogenous in NIH3T3)) (enzyme)
